Assay results: paper PMC3630112

How the values were obtained:
[1] = molecular target: T1, Flag-tagged Edc3 (mouse) (UniProt Q8K2D3); assay: co-IP; GFP-tagged Dcp1a (full length or deletion constructs) co-expressed with Flag-Ddx6, Flag-Edc3 or Flag-Dcp2 in HEK 293T cells; IP with anti-Flag M2 beads in NET buffer, 4°C, 2 h; western blot with anti-GFP and anti-Flag
T1 sequence: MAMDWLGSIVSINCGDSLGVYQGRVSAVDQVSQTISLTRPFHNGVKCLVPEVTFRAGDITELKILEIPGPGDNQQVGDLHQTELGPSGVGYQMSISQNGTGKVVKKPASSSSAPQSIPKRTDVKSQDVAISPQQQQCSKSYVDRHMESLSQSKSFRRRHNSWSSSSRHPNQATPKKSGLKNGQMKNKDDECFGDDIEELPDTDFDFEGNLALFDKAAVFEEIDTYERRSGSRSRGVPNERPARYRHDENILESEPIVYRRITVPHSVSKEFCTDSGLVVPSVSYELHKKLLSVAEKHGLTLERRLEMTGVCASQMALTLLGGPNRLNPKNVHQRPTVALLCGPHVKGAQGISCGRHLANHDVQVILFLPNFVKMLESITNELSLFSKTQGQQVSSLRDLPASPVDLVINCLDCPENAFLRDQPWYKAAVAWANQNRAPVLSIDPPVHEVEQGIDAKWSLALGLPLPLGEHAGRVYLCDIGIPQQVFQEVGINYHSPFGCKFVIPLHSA

[2] = molecular target: T2, Flag-tagged Ddx6 (mouse) (UniProt P54823); assay: as above
T2 sequence: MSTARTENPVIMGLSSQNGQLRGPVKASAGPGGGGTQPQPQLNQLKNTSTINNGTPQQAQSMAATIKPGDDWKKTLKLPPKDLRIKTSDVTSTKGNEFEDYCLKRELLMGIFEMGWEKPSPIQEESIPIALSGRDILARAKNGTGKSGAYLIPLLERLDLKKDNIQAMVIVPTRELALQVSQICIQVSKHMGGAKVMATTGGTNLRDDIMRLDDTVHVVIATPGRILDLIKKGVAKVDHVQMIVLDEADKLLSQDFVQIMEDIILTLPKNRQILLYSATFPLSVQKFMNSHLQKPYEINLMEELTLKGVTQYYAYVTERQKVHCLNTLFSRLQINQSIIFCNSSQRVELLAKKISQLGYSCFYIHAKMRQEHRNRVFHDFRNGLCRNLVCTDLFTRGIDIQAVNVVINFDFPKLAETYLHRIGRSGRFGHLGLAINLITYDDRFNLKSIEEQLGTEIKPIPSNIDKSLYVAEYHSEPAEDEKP

[3] = molecular target: endogenous mouse Dcp1a (3T3-L1 cells) (mouse (endogenous in 3T3-L1)); assay: co-IP; endogenous proteins; extracts of 3T3-L1 cells, control or induced to differentiate for 1 h, with or without 20 µM U0126; IP with anti-Dcp1a and protein A-Sepharose; western blot with anti-Ddx6, anti-Edc3, anti-Edc4, anti-HuR
[4] = molecular target: Flag-tagged Dcp1a (wild type) (mouse); assay: co-IP; Flag-tagged Dcp1a co-expressed with HA-tagged CA or DN MAPKK1 in HEK 293T cells; IP with M2 beads; western blot with anti-Ddx6, anti-Edc3, anti-Edc4 (endogenous proteins)
[5] = molecular target: Flag-Dcp1a(S315A/S319A) (mouse); assay: co-IP; Myc-tagged Dcp2 and Flag-tagged wild-type or mutant Dcp1a co-expressed in HEK 293T cells (Fig. S3: also with HA-tagged CA MAPKK1); IP by anti-Flag; western blot with anti-Myc, anti-Flag, anti-Edc3, anti-Edc4
[6] = molecular target: Flag-tagged Dcp1a (wild type) (mouse); assay: as above
[7] = molecular target: Flag-Dcp1a(S315D/S319D) (mouse); assay: as above

Molecule: GFP-Dcp1a(111–274) (mouse) (domain or fragment)
- binding [1]: binds
- binding [2]: binds

Molecule: GFP-Dcp1a Δ111–274 mutant (mouse) (domain or fragment)
- binding [1]: no binding
- binding [2]: no binding

B1: endogenous Edc3 (3T3-L1 cells) (protein, UniProt Q8K2D3 1-508)
chain: MAMDWLGSIVSINCGDSLGVYQGRVSAVDQVSQTISLTRPFHNGVKCLVPEVTFRAGDITELKILEIPGPGDNQQVGDLHQTELGPSGVGYQMSISQNGTGKVVKKPASSSSAPQSIPKRTDVKSQDVAISPQQQQCSKSYVDRHMESLSQSKSFRRRHNSWSSSSRHPNQATPKKSGLKNGQMKNKDDECFGDDIEELPDTDFDFEGNLALFDKAAVFEEIDTYERRSGSRSRGVPNERPARYRHDENILESEPIVYRRITVPHSVSKEFCTDSGLVVPSVSYELHKKLLSVAEKHGLTLERRLEMTGVCASQMALTLLGGPNRLNPKNVHQRPTVALLCGPHVKGAQGISCGRHLANHDVQVILFLPNFVKMLESITNELSLFSKTQGQQVSSLRDLPASPVDLVINCLDCPENAFLRDQPWYKAAVAWANQNRAPVLSIDPPVHEVEQGIDAKWSLALGLPLPLGEHAGRVYLCDIGIPQQVFQEVGINYHSPFGCKFVIPLHSA
- binding [3]: binds

B2: endogenous Edc4 (HEK 293T cells) (protein, UniProt Q6P2E9 1-1401)
chain: MASCASIDIEDATQHLRDILKLDRPAGGPSAESPRPSSAYNGDLNGLLVPDPLCSGDSTSANKTGLRTMPPINLQEKQVICLSGDDSSTCIGILAKEVEIVASSDSSISSKARGSNKVKIQPVAKYDWEQKYYYGNLIAVSNSFLAYAIRAANNGSAMVRVISVSTSERTLLKGFTGSVADLAFAHLNSPQLACLDEAGNLFVWRLALVNGKIQEEILVHIRQPEGTPLNHFRRIIWCPFIPEESEDCCEESSPTVALLHEDRAEVWDLDMLRSSHSTWPVDVSQIKQGFIVVKGHSTCLSEGALSPDGTVLATASHDGYVKFWQIYIEGQDEPRCLHEWKPHDGRPLSCLLFCDNHKKQDPDVPFWRFLITGADQNRELKMWCTVSWTCLQTIRFSPDIFSSVSVPPSLKVCLDLSAEYLILSDVQRKVLYVMELLQNQEEGHACFSSISEFLLTHPVLSFGIQVVSRCRLRHTEVLPAEEENDSLGADGTHGAGAMESAAGVLIKLFCVHTKALQDVQIRFQPQLNPDVVAPLPTHTAHEDFTFGESRPELGSEGLGSAAHGSQPDLRRIVELPAPADFLSLSSETKPKLMTPDAFMTPSASLQQITASPSSSSSGSSSSSSSSSSSLTAVSAMSSTSAVDPSLTRPPEELTLSPKLQLDGSLTMSSSGSLQASPRGLLPGLLPAPADKLTPKGPGQVPTATSALSLELQEVEPLGLPQASPSRTRSPDVISSASTALSQDIPEIASEALSRGFGSSAPEGLEPDSMASAASALHLLSPRPRPGPELGPQLGLDGGPGDGDRHNTPSLLEAALTQEASTPDSQVWPTAPDITRETCSTLAESPRNGLQEKHKSLAFHRPPYHLLQQRDSQDASAEQSDHDDEVASLASASGGFGTKVPAPRLPAKDWKTKGSPRTSPKLKRKSKKDDGDAAMGSRLTEHQVAEPPEDWPALIWQQQRELAELRHSQEELLQRLCTQLEGLQSTVTGHVERALETRHEQEQRRLERALAEGQQRGGQLQEQLTQQLSQALSSAVAGRLERSIRDEIKKTVPPCVSRSLEPMAGQLSNSVATKLTAVEGSMKENISKLLKSKNLTDAIARAAADTLQGPMQAAYREAFQSVVLPAFEKSCQAMFQQINDSFRLGTQEYLQQLESHMKSRKAREQEAREPVLAQLRGLVSTLQSATEQMAATVAGSVRAEVQHQLHVAVGSLQESILAQVQRIVKGEVSVALKEQQAAVTSSIMQAMRSAAGTPVPSAHLDCQAQQAHILQLLQQGHLNQAFQQALTAADLNLVLYVCETVDPAQVFGQPPCPLSQPVLLSLIQQLASDLGTRTDLKLSYLEEAVMHLDHSDPITRDHMGSVMAQVRQKLFQFLQAEPHNSLGKAARRLSLMLHGLVTPSLP
- binding [4]: binds
- binding [5]: binds
- binding [6]: binds
- binding [7]: binds

These are yes or no findings as the source states them, for the method shown. In cells and extracts the contact can be indirect. Binding calls can cover weak binding; strength is not graded here. For part of these data: Sequences can lack the tags named with a protein.
